Reference: PMC10920779, “Targeting P2Y14R protects against necroptosis of intestinal epithelial cells through PKA/CREB/RIPK1 axis in ulcerative colitis” (Nature Communications, 2024)
These are yes or no findings as the source states them, for the method shown. In cells and extracts the contact can be indirect. Some binding calls cover weakened binding; strength is not graded here.

By UniProt entry, the sequences of proteins in these tests, tags left out.
UniProt Q13546: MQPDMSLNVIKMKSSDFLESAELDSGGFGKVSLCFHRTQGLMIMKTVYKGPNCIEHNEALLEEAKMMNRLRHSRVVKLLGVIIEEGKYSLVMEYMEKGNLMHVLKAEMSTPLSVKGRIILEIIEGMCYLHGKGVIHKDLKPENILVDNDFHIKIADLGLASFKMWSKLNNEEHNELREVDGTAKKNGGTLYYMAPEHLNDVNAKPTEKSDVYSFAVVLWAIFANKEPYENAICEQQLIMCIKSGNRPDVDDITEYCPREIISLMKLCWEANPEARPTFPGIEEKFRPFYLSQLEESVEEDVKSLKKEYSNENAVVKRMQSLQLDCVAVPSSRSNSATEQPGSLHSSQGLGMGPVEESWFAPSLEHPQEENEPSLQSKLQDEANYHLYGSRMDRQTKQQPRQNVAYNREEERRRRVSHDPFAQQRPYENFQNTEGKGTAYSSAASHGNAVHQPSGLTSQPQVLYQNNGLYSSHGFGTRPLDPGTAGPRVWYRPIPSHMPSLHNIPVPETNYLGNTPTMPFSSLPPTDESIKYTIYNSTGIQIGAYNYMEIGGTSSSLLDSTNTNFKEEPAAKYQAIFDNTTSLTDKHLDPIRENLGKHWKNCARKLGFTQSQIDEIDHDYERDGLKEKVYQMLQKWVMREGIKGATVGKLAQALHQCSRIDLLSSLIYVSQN
UniProt Q9Y572: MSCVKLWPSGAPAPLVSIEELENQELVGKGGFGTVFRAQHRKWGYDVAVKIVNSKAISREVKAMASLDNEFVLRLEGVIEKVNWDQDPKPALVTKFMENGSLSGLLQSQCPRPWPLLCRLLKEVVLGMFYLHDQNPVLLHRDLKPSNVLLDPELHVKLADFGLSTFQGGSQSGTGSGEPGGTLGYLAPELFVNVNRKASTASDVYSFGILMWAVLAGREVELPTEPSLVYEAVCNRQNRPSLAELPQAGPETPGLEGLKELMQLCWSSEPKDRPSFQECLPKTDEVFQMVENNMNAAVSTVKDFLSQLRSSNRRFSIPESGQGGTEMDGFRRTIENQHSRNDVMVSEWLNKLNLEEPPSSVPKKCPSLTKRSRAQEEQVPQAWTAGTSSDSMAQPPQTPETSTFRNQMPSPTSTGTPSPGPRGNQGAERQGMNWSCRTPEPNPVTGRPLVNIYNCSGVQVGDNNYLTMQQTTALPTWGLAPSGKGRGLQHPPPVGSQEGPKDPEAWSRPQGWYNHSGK

Molecular target: receptor-interacting protein kinase 1 (UniProt Q13546)
Test: co-IP; cell lysate; anti-RIPK1 antibody (1:200) or control IgG with protein A/G agarose beads, 4 °C overnight, washed 3 times in lysis buffer, then immunoblotting; cells with or without silencing of P2Y14R

Q: With “receptor-interacting protein kinase 3 (from UniProt Q9Y572 1-518)” as the substance, how does the binding read?
A: binds
